Some entries share one result that the patent states for a list of compounds. At least one compound was matched to its structure with a doubt left.
Tested on: LNCaP cells
Assay: Anti-proliferative activity on LNCaP in complete medium
Type: cell-based
Settings: 144 h incubation, Cell-Titer-Glow, read-out: IC50 on the LNCaP cells in culture (inhibition of cell proliferation by 50%)
Description: The anti-proliferative activity of the compounds of the present invention is determined on LNCaP in complete medium by applying the following experimental procedure:
The LNCaP cell type (ATCC, 1740) originates from a prostate carcinoma. This line expresses the androgen receptor and is hormone-dependent.
Maintenance of the LNCaP line is carried out in complete culture medium: RPMI, 10% of fetal calf serum, 2 mM glutamine, 100 U/ml penicillin, 0.1 mg/ml of streptomycin and 0.01M HEPES, 1 mM sodium pyruvate, […]. • Seeding the plates:
The LNCaP line is seeded at 20,000 cells/well in 90 μl of complete medium in 96-well plates coated with poly-D-lysine (Biocoat, Costar). • Treatment of the cells: 24 h after the seeding, the cells are treated with 10 μl/well of compound diluted in the culture medium. The concentrations used are the following: 1 nM/10/30/100/300/1000/3000/10,000 nM. The cells are incubated for 144 h at 37° C., 5% CO2. • Reading: After incubation for 6 days, cell proliferation was determined by Cell-Titer-Glow (CTG) Luminescent Cell Viability Assay. • Results: The experiments are carried out in duplicate and the best compounds are tested twice. […] Anti-Proliferative Activity on DU145 in Complete Medium

In the case of `Cc1cc(-c2cn(C/C=C\CN3C(=O)N(c4ccc(C#N)c(C(F)(F)F)c4)C(=O)C3(C)C)nn2)ccc1F` [Example 21], the IC50 is reported as < 1500 nM.

— US9975880B2, “Imidazolidine-2,4-dione dervatives” (IPSEN PHARMA S.A.S., priority 2013, dated 2018)
